We go through one molecule from patent US20250221936A1, “ENGINEERED HEMICHANNELS, ENGINEERED VESICLES, AND USES THEREOF” (VIRGINIA TECH INTELLECTUAL PROPERTIES, INC., priority 2018, published 2025).

No constants are given. Whether binding was seen depends on the method and setting.

In the assay the target is PKC-ε. Briefly: EDC cross-linking of the kinase reaction mixture, SDS-PAGE and MS/MS.

Take RQPKIWFPNRRKPWKKRPRPDDLEI (biotin tag (biotin-alpha CT1) in the cross-linking, SPR and kinase assays) [alpha CT1]: the binding entry was “no binding”.
